# Some of the results follow. Hit calls seldom repeat between salt and free forms of one compound.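 Kinases were expressed as nanoluciferase fusions in K562 cells and luminescence was read every 4 h between 2 and 18 h as percent of control, DMSO set to 100% and a positive control to 0%. A time point counts as decreased when the signal drops significantly (2 sigma). The hit call is the authors' own, does not follow from the count of time points alone, and its rule is not shown.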
# Chains of the proteins cited; added tags and fusions are not shown. Lines headed by an entry give the natural chain unless they say otherwise; changes in a name come on top.
# UniProt P50613: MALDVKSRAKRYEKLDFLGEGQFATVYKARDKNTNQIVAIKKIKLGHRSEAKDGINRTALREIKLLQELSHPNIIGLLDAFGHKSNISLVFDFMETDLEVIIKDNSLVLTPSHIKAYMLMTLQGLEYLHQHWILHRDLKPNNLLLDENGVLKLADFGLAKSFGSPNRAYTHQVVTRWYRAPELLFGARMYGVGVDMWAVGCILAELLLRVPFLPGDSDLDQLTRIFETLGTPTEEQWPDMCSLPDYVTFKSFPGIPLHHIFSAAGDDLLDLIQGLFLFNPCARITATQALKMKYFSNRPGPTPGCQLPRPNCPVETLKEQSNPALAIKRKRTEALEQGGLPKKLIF
# UniProt P50750, whole entry: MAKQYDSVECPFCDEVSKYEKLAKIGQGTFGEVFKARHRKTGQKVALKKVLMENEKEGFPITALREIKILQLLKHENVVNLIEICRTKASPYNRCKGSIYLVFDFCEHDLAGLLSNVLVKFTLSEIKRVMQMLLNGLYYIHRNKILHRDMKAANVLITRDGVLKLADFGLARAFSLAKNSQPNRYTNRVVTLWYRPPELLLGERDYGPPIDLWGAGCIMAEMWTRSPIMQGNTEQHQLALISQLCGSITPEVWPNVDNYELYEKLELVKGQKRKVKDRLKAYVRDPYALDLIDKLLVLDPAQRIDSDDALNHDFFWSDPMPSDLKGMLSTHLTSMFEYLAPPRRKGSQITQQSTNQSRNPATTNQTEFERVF
# UniProt O96017, whole entry: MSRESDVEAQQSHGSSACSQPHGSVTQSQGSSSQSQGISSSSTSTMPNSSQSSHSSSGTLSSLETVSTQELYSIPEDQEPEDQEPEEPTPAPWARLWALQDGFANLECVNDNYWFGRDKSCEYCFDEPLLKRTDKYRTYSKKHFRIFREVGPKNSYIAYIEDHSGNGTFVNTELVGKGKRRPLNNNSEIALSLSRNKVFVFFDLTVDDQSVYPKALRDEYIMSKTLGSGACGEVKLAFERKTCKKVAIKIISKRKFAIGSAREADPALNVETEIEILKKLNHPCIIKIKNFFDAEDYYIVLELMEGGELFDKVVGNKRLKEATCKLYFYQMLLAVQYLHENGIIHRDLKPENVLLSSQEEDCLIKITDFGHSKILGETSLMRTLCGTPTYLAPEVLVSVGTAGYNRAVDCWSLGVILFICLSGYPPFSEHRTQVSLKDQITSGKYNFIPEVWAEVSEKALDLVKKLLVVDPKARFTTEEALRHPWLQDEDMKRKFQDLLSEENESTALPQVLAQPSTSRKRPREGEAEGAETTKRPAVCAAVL
# UniProt P07333, whole entry: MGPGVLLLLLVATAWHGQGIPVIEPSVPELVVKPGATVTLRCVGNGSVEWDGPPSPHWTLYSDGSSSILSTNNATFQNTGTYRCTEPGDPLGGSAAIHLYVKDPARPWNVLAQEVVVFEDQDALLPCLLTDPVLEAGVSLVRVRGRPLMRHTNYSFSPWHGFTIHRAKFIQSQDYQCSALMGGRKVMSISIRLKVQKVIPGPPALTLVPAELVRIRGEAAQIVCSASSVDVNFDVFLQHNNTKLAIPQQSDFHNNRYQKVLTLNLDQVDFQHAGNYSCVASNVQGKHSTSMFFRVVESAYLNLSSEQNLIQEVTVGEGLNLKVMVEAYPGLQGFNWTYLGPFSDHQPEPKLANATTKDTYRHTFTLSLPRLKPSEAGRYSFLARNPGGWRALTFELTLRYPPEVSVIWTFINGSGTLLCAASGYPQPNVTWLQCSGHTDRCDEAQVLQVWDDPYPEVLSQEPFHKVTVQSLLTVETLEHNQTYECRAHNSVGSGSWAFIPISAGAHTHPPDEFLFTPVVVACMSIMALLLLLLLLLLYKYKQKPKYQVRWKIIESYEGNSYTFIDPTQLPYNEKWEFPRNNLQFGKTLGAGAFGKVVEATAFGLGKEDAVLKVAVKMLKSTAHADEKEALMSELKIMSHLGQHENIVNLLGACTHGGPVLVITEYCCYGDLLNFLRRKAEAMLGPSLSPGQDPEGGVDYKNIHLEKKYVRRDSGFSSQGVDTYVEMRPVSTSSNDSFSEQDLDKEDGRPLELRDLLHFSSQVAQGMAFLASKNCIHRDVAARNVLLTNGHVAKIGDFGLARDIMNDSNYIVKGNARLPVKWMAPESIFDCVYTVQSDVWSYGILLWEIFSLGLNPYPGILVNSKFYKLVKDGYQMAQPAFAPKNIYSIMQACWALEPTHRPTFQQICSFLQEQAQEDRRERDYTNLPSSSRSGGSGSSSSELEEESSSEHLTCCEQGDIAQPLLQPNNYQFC
# UniProt P41240: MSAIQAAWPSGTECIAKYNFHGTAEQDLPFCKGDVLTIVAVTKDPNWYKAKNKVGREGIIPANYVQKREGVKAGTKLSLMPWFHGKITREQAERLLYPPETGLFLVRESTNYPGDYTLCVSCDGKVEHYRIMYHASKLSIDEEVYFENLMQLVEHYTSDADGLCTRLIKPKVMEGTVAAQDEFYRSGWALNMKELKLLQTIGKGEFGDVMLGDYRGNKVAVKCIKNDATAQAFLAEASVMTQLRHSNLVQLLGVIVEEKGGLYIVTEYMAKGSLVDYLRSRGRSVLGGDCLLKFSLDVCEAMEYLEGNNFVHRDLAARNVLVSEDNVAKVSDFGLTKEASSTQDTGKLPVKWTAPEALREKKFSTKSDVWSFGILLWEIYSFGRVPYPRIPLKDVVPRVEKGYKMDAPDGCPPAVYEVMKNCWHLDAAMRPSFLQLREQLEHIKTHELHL
# UniProt P48729: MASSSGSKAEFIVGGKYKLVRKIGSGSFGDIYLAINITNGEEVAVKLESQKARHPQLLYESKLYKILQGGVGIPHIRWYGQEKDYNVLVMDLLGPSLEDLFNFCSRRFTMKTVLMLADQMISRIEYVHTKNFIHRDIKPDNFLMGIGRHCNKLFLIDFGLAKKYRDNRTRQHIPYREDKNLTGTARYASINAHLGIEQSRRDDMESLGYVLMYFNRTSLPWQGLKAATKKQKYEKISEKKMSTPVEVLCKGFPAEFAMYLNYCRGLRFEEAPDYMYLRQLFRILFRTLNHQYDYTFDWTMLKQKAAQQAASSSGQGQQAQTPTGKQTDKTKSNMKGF
# UniProt P48730: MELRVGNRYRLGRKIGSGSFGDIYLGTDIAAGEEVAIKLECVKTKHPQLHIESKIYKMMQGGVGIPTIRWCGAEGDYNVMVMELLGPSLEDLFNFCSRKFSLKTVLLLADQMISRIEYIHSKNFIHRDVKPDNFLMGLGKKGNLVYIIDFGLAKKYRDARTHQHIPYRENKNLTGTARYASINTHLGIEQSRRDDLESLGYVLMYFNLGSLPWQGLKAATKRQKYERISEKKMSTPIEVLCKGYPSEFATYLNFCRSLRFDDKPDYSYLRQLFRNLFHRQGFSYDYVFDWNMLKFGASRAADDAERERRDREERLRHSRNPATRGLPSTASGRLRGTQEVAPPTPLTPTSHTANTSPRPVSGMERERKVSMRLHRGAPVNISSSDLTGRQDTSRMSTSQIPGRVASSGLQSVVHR
# UniProt Q08345: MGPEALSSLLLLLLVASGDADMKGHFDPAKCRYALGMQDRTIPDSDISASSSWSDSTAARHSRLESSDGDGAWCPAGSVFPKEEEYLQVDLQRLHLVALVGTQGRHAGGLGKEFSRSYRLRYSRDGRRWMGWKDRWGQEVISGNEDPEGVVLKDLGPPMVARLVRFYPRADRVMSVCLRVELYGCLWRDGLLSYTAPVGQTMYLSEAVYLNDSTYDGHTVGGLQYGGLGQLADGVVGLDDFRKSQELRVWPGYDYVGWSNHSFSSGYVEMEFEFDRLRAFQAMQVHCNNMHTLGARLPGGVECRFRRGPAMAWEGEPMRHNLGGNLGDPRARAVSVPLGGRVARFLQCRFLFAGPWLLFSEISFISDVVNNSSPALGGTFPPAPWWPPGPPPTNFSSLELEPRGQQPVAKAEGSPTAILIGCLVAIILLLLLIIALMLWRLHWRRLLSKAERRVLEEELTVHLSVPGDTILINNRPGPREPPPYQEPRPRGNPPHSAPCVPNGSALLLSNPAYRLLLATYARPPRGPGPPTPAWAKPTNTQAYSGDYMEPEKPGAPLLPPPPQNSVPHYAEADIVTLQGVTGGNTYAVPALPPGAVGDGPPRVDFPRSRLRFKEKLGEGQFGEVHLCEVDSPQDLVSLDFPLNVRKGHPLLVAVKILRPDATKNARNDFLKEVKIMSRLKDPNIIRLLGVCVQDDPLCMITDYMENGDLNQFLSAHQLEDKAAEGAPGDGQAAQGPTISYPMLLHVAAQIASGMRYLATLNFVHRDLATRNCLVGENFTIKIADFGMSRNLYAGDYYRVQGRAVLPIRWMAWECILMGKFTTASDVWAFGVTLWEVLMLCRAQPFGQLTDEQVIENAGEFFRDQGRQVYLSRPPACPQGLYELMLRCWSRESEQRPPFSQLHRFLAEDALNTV
# UniProt Q9Y463, whole entry, looked up: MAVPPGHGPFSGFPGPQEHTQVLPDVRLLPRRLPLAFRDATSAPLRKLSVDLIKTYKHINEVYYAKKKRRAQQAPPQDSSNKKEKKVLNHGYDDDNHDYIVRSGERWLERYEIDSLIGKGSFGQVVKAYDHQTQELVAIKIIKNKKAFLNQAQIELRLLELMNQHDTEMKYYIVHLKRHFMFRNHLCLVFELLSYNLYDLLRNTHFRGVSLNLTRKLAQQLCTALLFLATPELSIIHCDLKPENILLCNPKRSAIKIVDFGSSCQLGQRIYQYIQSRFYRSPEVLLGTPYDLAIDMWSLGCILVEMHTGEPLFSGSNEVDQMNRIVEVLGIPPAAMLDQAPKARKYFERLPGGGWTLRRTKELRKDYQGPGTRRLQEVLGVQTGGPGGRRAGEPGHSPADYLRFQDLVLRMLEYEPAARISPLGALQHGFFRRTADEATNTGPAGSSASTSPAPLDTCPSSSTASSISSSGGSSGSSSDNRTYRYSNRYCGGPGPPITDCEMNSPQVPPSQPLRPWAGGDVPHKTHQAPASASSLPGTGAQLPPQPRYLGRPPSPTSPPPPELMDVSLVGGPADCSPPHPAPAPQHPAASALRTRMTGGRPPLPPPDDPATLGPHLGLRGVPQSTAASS
# UniProt Q92630: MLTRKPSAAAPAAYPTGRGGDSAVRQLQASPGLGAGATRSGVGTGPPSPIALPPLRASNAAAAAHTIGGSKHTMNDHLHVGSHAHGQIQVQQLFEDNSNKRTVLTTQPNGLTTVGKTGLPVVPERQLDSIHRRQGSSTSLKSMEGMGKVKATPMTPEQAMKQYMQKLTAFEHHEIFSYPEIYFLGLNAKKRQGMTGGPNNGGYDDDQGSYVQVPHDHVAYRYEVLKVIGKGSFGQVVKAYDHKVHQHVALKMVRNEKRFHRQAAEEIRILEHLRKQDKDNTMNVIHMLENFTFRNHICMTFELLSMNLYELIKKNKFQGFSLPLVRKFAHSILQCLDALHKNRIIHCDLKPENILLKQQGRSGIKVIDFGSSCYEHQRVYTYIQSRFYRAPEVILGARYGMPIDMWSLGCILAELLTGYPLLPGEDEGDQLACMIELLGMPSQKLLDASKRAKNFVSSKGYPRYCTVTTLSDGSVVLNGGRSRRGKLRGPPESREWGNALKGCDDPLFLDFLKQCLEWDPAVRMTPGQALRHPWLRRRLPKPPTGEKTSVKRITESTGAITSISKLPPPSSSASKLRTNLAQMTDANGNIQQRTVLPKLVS
# Experiments:
# Assay in all cases: kinase-Nluc reporter destabilization hit call (1 = scored as downregulated) (binary); higher = compound decreases kinase abundance
# Conditions in all cases: K562; 2-18 h
# CDK7 = CDK7 (UniProt P50613)
# CDK9 = CDK9 (UniProt P50750)
# CHEK2 = CHEK2 (UniProt O96017)
# CSF1R = CSF1R (UniProt P07333)
# CSK = CSK (UniProt P41240)
# CSNK1A1 = CSNK1A1 (UniProt P48729)
# CSNK1D = CSNK1D (UniProt P48730)
# DDR1 = DDR1 (UniProt Q08345)
# DYRK1B = DYRK1B (UniProt Q9Y463)
# DYRK2 = DYRK2 (UniProt Q92630)
SMILES,kinase-Nluc reporter destabilization hit call (CDK7),kinase-Nluc reporter destabilization hit call (CDK9),kinase-Nluc reporter destabilization hit call (CHEK2),kinase-Nluc reporter destabilization hit call (CSF1R),kinase-Nluc reporter destabilization hit call (CSK),kinase-Nluc reporter destabilization hit call (CSNK1A1),kinase-Nluc reporter destabilization hit call (CSNK1D),kinase-Nluc reporter destabilization hit call (DDR1),kinase-Nluc reporter destabilization hit call (DYRK1B),kinase-Nluc reporter destabilization hit call (DYRK2)
COc1cc(-c2cnc(N)c(-c3ccc(NC(=O)c4cn(CC5CCOCC5)cc(-c5ccc(C)cn5)c4=O)cc3F)c2)ccc1OC[C@H]1COCCO1 [DS-1205b (free base)] (10 µM),inactive: 0,inactive: 0,inactive: 0,inactive: 0,inactive: 0,inactive: 0,inactive: 0,inactive: 0,inactive: 0,inactive: 0
C[C@@H]1CN(Cc2cn[nH]c2-c2ccc(C#N)cc2)CCN1c1ccc(C(F)(F)F)cn1 (2.5 µM),inactive: 0,inactive: 0,inactive: 0,inactive: 0,inactive: 0,inactive: 0,inactive: 0,inactive: 0,inactive: 0,inactive: 0
COc1cccc2cc(-c3nc([C@H]4CC[C@H](C(=O)O)CC4)n4ncnc(N)c34)[nH]c12 (2.5 µM),inactive: 0,active: 1,inactive: 0,inactive: 0,inactive: 0,inactive: 0,inactive: 0,inactive: 0,inactive: 0,inactive: 0
COC(=O)[C@]1(C)CC[C@]2(C(=O)O[C@@H]3O[C@H](CO)[C@@H](O)[C@H](O)[C@H]3O)CC[C@]3(C)C(=CC[C@@H]4[C@@]5(C)C[C@H](O)[C@H](O[C@@H]6OC[C@@H](O[C@@H]7O[C@H](CO)[C@@H](O)[C@H](O)[C@H]7O)[C@H](O)[C@H]6O)[C@@](C)(CO)C5CC[C@]43C)[C@H]2C1 (stereo not given in full) [Esculentoside H] (10 µM),inactive: 0,inactive: 0,inactive: 0,inactive: 0,inactive: 0,inactive: 0,inactive: 0,inactive: 0,inactive: 0,inactive: 0
O=C(CC(c1ccccc1)C(C(=O)O)C(=O)O)c1ccc(C(F)(F)F)cc1 (stereo not given) (10 µM),inactive: 0,inactive: 0,inactive: 0,inactive: 0,inactive: 0,inactive: 0,inactive: 0,inactive: 0,inactive: 0,inactive: 0
CC(=O)Nc1nc(C)c(-c2cc3c(c(S(C)(=O)=O)c2)C(=O)N([C@@H](C)C2CC2)C3)s1 (2.5 µM),inactive: 0,inactive: 0,inactive: 0,inactive: 0,inactive: 0,inactive: 0,inactive: 0,inactive: 0,inactive: 0,inactive: 0

# — the supplement of paper PMC12823440, “Inhibitors supercharge kinase turnover through native proteolytic circuits” (Nature, 2025)
